Reference: US6429286B1, “Immunoregulatory molecules for costimulatory signal transduction” (priority 1997, dated 2002)
No constants are given. Whether binding was seen depends on the method and setting. Some binding calls cover weakened binding; strength is not graded here.

Biological target: human CD80-Ig (human) (UniProt P33681+P01857)
Test: ELISA, F2 phage coated, human CD80-Ig in solution, as in Example 7

B1: phage expressing F2 sequence (peptide)
chain: ADGAGFVCSGIFAVGVGRCGAAGAETVESCLAKPHTENSFTNVWKDDKTLDRYANYEGCLWNATGVVVCTGDETQCYGTWVPIGLAIPENEGGGSEGGGSEGGGSEGGGTKPPEYGDTPIPGYTYINPLDGTYPPGTEQNPANPNPSLEESQPLNTFMFQNNRFRNRQGALTVYTGTVTQGTDPVKTYYQYTPVSSKAMYDAYWNGKFRDCAFHSGFNEDPFVCEYQGQSSDLPQPPVNAGGGSGGGSGGGSEGGGSEGGGSEGGGSEGGGSGGGSGSGDFDYEKMANANKGAMTENADENALQSDAKGKLDSVATDYGAAIDGFIGDVSGLANGNGATGDFAGSNSQMAQVGDGDNSPLMNNFRQYLPSLPQSVECRPYVFGAGKPYEFSIDCDKINLFRGVFAFLLYVATFMYVFSTFANILRNKES
notes: also called F2 phage
**Q.** With B1 as the binder, how does the binding read?
**A.** Its binding is “binds”.
